Compound in this experiment: B lymphoma Mo-MLV insertion region 1 homolog (human (endogenous in SNUC4)) (UniProt P35226)
The experiment in a line: co-IP; SNUC4 cells (actively growing, 10% FBS) lysed in RIPA buffer with proteinase and phosphatase inhibitors; lysates precleared with magnetic protein G beads, incubated with 2 ug anti-BMI1 antibody overnight; IgG as negative control; ZNF277 and BMI1 detected by immunoblot.

By UniProt entry, the sequences of proteins in these tests, tags left out.
UniProt P35226: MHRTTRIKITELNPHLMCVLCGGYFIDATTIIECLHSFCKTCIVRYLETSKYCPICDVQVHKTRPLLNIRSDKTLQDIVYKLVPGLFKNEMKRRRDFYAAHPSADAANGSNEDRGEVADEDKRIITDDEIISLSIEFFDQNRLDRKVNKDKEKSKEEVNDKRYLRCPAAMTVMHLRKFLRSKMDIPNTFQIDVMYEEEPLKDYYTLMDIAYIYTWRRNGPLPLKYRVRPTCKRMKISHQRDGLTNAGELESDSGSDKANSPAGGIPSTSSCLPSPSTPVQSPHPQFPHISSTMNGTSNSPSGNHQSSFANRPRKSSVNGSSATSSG

Results are given in words; binding and its absence hold for the method and conditions named. Binding seen in cells or lysates may run through a third protein. Some binding calls cover weakened binding; strength is not graded here.

B1: Zinc finger protein 277 (protein, UniProt Q9NRM2 1-450)
chain: MAASKTQGAVARMQEDRDGSCSTVGGVGYGDSKDCILEPLSLPESPGGTTTLEGSPSVPCIFCEEHFPVAEQDKLLKHMIIEHKIVIADVKLVADFQRYILYWRKRFTEQPITDFCSVIRINSTAPFEEQENYFLLCDVLPEDRILREELQKQRLREILEQQQQERNDTNFHGVCMFCNEEFLGNRSVILNHMAREHAFNIGLPDNIVNCNEFLCTLQKKLDNLQCLYCEKTFRDKNTLKDHMRKKQHRKINPKNREYDRFYVINYLELGKSWEEVQLEDDRELLDHQEDDWSDWEEHPASAVCLFCEKQAETIEKLYVHMEDAHEFDLLKIKSELGLNFYQQVKLVNFIRRQVHQCRCYGCHVKFKSKADLRTHMEETKHTSLLPDRKTWDQLEYYFPTYENDTLLCTLSDSESDLTAQEQNENVPIISEDTSKLYALKQSSILNQLLL
B1: the binding result is “binds”.

Source of the values: paper PMC8876557.
